Usually Kd stands for the constant that tells how readily two partners part at equilibrium. A high value points to weaker binding.

Chains of the proteins cited; added tags and fusions are not shown. A line that says so, or that is headed by a name, gives the form on record, which may keep a tag or linker.
Human hemoglobin A0 (HbA0, non-glycated) (Homo sapiens), one chain, as listed by the source, chain 2 of 2: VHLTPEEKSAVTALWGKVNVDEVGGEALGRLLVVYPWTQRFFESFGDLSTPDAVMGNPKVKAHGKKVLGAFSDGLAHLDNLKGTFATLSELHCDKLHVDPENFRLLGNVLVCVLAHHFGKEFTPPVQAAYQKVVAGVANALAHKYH
Human hemoglobin A0 (HbA0, non-glycated) (Homo sapiens), one chain, as listed by the source, chain 1 of 2: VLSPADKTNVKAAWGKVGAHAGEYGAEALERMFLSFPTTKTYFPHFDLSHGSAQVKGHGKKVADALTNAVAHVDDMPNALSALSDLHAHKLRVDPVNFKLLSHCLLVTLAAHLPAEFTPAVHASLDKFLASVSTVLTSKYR

The results in this text go back to publication PMC7765918.

For some assays here: A negative result means that nothing was seen under these conditions. For some assays here: At least one verdict was read from the data and is not stated in words by the source. For some assays here: Construct, isoform or probe ends are uncertain for at least one entry.

Series [1] deals with Human hemoglobin A0 (HbA0, non-glycated) (Homo sapiens). Briefly: photoelectric aptasensor (bacteriorhodopsin photocurrent). Particulars: 0.1-100 ug/mL, no cross reactivity; 5' amino-C12; 15 min single-step detection; chips stored in 10 mM PB, 100 mM NaCl, pH 8.0, 4 °C; commercial protein; single-stranded DNA.
Series [2] shares this test system. The series is described as follows: photoelectric aptasensor (bacteriorhodopsin photocurrent), Langmuir fit. Particulars: aptamer immobilized, monomeric Kd; 5' amino-C12; 15 min single-step detection; chips stored in 10 mM PB, 100 mM NaCl, pH 8.0, 4 °C; commercial protein; single-stranded DNA.

Turning to “GGCAGGAAGACAAACACATCGTCGCGGCCTTAGGAGGGGCGGACGGGGGGGGGCGTTGGTCTGTGGTGCTGT [HbA1c aptamer]”, the binding result in series [1] is reported as “no binding”.

The sequence “GGCAGGAAGACAAACACCAGGTGAGGGAGACGACGCGAGTGTTAGATGGTAGCTGTTGGTCTGTGGTGCTGT [HbA0 aptamer]” showed a dissociation constant Kd in series [2] of 79 nM. This lies in the double-digit nanomolar range.
